For experiment [1], the target named is endogenous LRP of mouse N2a cells and mouse primary cortical neurons (mouse) (UniProt Q91ZX7). Put plainly: FLIM/FRET in untransfected N2a cells and mouse primary cortical neurons.
For experiment [2], the target named is endogenous BACE (human: human brain tissue; H4 cells) (human) (UniProt P56817). Briefly: co-immunoprecipitation, anti-myc pull-down and anti-BACE blot, H4 cells (FIG. 6B).
For experiment [3] the target is unchanged. Put plainly: co-immunoprecipitation, anti-myc pull-down and anti-BACE blot, H4 cells.
The target in experiment [4] is endogenous LRP (light chain, approx. 85 kDa) of human brain tissue (human) (UniProt Q07954). Put plainly: co-immunoprecipitation from human brain homogenate.
Experiment [5] shares this target. Briefly: co-immunoprecipitation from human brain tissue, anti-BACE pull-down and blot with an antibody to the LRP light chain.
The target is the same in experiment [6]. Put plainly: co-immunoprecipitation from human brain extracts, anti-BACE-CT pull-down and 11H4 blot (FIG. 6C).

The chains behind the UniProt entries cited, without tags or fusion partners. Where a name states a change or a piece, a line headed by the entry shows the natural chain unless it says otherwise. Residues count along the entry.
UniProt Q91ZX7, residues 20-4545: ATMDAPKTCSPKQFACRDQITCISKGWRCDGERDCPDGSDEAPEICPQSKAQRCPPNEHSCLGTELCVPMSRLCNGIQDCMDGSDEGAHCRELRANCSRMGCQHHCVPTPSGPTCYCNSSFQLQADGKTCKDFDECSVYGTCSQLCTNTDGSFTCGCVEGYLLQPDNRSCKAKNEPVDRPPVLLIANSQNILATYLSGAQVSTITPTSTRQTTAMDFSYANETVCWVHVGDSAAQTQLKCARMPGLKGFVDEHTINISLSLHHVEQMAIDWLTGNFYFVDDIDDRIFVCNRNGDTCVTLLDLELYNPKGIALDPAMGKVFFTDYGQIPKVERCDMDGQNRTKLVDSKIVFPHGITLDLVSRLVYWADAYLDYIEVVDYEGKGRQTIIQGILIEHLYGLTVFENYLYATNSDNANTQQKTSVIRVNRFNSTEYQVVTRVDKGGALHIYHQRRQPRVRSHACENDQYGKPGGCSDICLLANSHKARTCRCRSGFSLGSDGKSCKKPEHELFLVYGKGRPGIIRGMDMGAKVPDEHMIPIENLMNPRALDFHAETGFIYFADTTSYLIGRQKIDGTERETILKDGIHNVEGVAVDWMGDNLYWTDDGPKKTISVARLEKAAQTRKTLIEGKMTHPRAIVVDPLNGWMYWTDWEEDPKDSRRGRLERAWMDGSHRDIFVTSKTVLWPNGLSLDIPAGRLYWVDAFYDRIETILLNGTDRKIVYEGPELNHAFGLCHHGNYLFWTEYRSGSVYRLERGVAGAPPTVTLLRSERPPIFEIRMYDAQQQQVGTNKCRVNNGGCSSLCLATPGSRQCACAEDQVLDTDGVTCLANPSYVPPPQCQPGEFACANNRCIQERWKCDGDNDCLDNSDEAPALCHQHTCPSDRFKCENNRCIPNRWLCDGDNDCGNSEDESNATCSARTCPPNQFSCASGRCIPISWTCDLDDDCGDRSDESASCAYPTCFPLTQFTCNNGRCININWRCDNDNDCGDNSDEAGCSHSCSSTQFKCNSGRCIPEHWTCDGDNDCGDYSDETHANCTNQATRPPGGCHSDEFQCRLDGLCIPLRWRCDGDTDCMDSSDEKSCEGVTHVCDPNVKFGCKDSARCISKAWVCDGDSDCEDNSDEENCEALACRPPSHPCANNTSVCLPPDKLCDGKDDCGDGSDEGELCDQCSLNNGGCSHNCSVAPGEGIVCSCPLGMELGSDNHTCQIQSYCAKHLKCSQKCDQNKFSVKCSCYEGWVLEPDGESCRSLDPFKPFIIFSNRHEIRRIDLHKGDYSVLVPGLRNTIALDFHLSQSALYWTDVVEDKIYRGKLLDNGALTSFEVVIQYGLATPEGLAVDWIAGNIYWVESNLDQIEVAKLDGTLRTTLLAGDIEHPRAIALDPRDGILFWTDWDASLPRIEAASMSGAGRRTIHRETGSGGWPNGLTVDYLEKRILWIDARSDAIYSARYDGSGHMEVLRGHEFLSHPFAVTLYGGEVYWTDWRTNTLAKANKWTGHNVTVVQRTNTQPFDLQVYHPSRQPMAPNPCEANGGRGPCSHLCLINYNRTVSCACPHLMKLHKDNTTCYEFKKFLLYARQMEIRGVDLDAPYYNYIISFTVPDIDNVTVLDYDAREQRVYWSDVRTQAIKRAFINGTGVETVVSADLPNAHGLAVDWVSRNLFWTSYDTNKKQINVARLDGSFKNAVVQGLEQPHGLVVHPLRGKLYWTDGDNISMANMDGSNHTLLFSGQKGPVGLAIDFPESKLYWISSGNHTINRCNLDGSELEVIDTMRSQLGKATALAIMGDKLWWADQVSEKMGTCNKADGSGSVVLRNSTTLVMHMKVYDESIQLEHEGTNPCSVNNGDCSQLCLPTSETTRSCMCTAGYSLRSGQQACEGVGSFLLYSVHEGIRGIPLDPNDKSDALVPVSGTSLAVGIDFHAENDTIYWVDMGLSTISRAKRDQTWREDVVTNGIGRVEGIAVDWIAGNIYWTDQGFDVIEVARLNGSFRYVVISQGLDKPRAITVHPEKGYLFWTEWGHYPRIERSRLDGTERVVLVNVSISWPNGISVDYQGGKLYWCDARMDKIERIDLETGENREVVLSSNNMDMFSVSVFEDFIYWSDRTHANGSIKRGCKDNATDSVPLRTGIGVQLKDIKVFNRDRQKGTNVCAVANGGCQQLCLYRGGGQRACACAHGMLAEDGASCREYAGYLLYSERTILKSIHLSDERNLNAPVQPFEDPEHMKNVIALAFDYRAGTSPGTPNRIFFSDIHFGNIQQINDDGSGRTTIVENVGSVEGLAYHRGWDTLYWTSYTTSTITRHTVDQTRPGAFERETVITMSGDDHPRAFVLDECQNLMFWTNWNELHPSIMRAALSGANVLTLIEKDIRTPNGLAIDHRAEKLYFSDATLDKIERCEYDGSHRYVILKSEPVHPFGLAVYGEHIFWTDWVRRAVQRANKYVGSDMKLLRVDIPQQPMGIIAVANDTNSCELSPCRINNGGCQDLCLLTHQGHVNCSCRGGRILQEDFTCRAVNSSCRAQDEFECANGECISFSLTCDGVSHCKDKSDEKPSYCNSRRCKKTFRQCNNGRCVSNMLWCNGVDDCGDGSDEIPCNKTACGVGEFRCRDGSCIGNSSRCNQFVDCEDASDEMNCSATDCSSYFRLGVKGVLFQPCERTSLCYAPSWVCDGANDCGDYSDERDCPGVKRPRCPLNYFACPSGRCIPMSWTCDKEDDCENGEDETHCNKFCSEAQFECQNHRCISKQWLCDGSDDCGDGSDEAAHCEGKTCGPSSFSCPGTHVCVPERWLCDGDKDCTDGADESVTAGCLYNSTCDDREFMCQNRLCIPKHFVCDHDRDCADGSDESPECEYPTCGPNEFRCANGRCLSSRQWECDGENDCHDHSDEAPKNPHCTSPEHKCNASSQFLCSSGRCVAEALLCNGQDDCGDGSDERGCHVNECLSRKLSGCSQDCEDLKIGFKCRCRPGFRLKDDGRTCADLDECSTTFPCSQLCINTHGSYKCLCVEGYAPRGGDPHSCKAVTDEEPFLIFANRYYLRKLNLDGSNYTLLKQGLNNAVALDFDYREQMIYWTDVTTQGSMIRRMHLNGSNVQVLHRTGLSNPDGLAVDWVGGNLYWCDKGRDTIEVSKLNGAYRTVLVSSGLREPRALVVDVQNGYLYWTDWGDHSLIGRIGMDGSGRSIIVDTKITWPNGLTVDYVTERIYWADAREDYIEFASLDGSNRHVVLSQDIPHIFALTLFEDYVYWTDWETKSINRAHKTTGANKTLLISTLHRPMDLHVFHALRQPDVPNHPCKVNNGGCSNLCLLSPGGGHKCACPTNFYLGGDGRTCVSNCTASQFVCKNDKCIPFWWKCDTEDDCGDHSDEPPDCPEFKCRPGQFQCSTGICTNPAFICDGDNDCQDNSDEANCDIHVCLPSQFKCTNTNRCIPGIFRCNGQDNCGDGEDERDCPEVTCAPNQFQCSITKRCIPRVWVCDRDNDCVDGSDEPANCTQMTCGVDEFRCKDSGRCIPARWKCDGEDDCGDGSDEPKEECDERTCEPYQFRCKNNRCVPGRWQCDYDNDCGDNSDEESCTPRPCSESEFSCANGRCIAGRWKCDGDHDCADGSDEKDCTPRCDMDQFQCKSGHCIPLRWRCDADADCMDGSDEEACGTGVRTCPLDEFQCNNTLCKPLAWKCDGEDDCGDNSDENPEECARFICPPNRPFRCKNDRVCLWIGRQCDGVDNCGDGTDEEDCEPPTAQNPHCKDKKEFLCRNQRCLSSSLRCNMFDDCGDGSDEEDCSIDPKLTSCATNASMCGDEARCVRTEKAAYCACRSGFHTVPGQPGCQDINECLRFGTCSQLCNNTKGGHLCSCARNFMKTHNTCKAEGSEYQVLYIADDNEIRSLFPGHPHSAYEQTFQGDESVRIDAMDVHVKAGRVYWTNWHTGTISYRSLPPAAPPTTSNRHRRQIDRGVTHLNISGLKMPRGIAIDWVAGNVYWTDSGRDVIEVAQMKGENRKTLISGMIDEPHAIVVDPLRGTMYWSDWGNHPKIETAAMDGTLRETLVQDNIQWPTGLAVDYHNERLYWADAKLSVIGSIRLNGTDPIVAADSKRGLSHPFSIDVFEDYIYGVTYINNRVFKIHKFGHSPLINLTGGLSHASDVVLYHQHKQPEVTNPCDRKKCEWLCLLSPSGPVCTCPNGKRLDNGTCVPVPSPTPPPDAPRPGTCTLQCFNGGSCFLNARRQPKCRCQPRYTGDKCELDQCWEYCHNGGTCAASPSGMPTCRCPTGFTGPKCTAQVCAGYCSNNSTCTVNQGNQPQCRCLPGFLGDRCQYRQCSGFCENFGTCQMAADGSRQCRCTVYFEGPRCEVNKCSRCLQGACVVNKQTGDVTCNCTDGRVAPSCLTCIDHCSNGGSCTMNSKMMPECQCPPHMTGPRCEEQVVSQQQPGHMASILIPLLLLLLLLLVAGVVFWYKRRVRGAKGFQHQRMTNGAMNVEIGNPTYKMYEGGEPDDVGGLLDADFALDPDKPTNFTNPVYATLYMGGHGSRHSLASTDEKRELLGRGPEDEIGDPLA
UniProt P56817, residues 46-501: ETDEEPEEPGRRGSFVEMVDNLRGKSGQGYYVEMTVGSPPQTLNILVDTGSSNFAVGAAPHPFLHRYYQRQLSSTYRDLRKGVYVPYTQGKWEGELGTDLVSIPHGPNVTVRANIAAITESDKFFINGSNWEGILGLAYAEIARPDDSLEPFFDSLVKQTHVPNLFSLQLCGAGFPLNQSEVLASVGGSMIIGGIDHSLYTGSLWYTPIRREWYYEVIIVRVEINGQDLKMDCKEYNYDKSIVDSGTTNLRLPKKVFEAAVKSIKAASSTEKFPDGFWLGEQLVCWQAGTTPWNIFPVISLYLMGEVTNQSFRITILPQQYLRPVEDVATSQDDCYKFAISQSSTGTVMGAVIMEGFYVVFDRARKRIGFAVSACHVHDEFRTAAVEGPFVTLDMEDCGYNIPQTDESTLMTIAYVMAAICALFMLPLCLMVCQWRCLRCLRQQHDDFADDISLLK
endogenous LRP (light chain, approx. 85 kDa) of human brain tissue (Q07954, residues 3944-4544): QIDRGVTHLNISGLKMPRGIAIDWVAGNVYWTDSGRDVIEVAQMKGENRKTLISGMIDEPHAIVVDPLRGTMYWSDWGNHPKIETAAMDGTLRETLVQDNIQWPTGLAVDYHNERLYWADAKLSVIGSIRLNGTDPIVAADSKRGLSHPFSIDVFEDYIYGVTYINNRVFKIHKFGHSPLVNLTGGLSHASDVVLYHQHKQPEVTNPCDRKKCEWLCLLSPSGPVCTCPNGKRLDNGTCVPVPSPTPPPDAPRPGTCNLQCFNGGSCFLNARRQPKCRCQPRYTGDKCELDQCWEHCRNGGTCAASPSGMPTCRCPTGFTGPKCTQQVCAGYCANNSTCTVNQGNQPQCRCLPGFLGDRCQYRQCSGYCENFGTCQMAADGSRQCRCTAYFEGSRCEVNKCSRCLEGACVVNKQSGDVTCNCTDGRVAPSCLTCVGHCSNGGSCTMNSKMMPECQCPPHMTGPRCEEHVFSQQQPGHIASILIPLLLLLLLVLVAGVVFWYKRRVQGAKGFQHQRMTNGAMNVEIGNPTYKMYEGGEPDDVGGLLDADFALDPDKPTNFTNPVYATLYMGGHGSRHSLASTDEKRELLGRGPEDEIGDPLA
UniProt P56818, residues 46-501: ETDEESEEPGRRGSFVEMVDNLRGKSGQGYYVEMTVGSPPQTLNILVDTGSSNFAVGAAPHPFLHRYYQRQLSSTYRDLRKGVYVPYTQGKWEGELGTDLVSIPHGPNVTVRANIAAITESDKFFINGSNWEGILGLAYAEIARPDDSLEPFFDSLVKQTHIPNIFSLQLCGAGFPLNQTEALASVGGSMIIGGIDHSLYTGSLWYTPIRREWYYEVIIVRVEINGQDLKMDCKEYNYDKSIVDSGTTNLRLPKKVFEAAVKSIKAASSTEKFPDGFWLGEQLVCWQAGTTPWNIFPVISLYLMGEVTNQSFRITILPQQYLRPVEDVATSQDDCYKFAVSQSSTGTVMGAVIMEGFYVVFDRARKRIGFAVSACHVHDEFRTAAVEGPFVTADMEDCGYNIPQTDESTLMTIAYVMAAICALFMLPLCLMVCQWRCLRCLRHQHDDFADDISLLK

These are yes or no findings as the source states them, for the method shown. For part of these data: Binding seen in cells or lysates may run through a third protein. Some results given as binding are weak or reduced against the parent protein; the word gives no strength.

Turning to “endogenous BACE of mouse N2a cells and mouse primary cortical neurons (from UniProt P56818 46-501) (enzyme)”, the binding entry in experiment [1] is recorded as “binds”.
As for “mLRP1-myc (mini-receptor: N-terminal cluster of ligand binding repeats fused to the light chain of LRP, myc at the C-terminus) (from UniProt Q07954 20-191; Q07954 3863-4544)”, the binding result in experiment [2] and in experiment [3] was “binds” each time.
For the substance “endogenous BACE (human: human brain tissue; H4 cells) (from UniProt P56817 46-501) (enzyme)”, the binding result in experiment [4], in experiment [5] and in experiment [6] was “binds” throughout.

For the origin of these results see patent publication US20060034848A1, “Methods and compositions for treating Alzheimer's disease” (priority 2003, published 2006).
